Results published in PubChem BioAssay AID624297 (National Center for Advancing Translational Sciences (NCATS), 2012).
Hit rate of the full screen: of about 340,000 compounds, about 6,200 (1.8%) were called active. The inconclusive results got no clear call from the source; some entries with a clear call stand among them for comparison. The call rests on the fitted dose curve; in most records, active means well fitted activation curve with a large enough effect; inconclusive means small, poorly fitted or top-dose-only effect; inactive means no such curve, though single readings can be large or run the other way. Potencies beside an inconclusive call are fits to weak or partial responses and may not hold up.

Assay: A quantitative high throughput screen for small molecules that induce DNA re-replication in SW480 colon adenocarcinoma cells. Further: nearly all actives have a fitted effect of over 55% in size. On re-replication activation: % of control where 0% means no effect.
Conditions: Hoechst DNA content imaging, 48 h; re-replication activation: at 46.1 µM (top of the series) unless noted
Summary of the method: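 DNA re-replication was detected as more nuclei of elevated Hoechst intensity after 48 hr exposure to compound (23 nL pinned per well of 250 cells).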
Potency means the concentration at half of the fitted maximal effect.

Row | Structure (SMILES) | Potency | re-replication activation
1 | CC(C)OP(=O)(c1ccc(N(C)C)cc1)C(O)c1ccc(C(C)C)cc1 (stereo not drawn) | inactive | –
2 | Cn1nnc(-c2ccc(OCc3ccccc3F)cc2)n1 | inactive | –
3 | COc1ccccc1N1CCN(C2CCCN(C(=O)CC(F)(F)F)C2)CC1 (stereo not drawn) | – | inconclusive: 28.3% [activator]
4 | O=C(NCc1cccs1)C(=O)NCC(c1ccco1)N1CCN(c2ccc(F)cc2)CC1 (stereo not drawn) | inactive | –
5 | CCCCCc1cc(=O)[nH]c(=S)[nH]1 | inactive | –
6 | Cc1ccc(NC(=O)CCC(=O)N/N=C/c2cc([N+](=O)[O-])ccc2O)cc1 | inconclusive: 16.4 µM [activator, partial curve, poor fit] | –
7 | CCN(CC)CCNCc1cc(Br)ccc1OCC(=O)NCc1ccccc1 | inconclusive: 4.61 µM [activator, partial curve, poor fit] | –
8 | Cc1nnc(NC(=O)c2ccc(S(=O)(=O)N(C)Cc3ccccc3)cc2)o1 | inconclusive: 20.6 µM [activator, single point] | –
9 | Cn1c(O)c(N=NC(=S)Nc2ccccc2F)c2cc(S(=O)(=O)N3CCOCC3)ccc21 | inconclusive: 29.1 µM [activator, single point] | –
10 | CCc1nnc(NC(=O)c2nc(Cl)ccc2Cl)s1 | inactive | –
11 | Cc1ccc(-n2nc3c(=O)n(CC(=O)NCc4ccccn4)nc(C)c3c2C)cc1 | – | inconclusive: -21.1% [activator]
12 | Cc1ccc(/C=C2\SC(=S)N(CCCC(=O)Nc3cc(C)on3)C2=O)cc1 | inactive | –
13 | CC1CCN(C(=O)c2ccc(NC3=C(Cl)C(=O)N(Cc4ccccc4)C3=O)cc2)CC1 | inconclusive: 20.6 µM [activator, single point] | –
14 | COc1ccc(NC(=O)Cc2coc3ccc4ccccc4c23)cc1S(=O)(=O)N1CCOCC1 | inconclusive: 16.4 µM [activator, partial curve, poor fit] | –
15 | C#CCN1C=C(C(=O)OCC)C(C)N(Cc2ccccc2I)S1(=O)=O (stereo not drawn) | active: 1.3 µM | –
16 | Cc1cc(S(=O)(=O)N2CCOCC2)ccc1OCC(=O)NCCCn1ccnc1 | inconclusive: 11.2 µM [activator, partial curve, poor fit] | –
17 | COc1ccc(-c2cc(C(=O)N(C)CCc3ccc(OC)c(OC)c3)c3ccccc3n2)cc1 | inconclusive: 8.2 µM [activator, partial curve, poor fit] | –
18 | Cc1ccc(NC(=O)CCC(=O)N/N=C/c2cccs2)cc1C | inconclusive: 32.6 µM [activator, partial curve, poor fit] | –
19 | Cc1ccc(C2(C)NC(=O)N(CC(=O)N3CCN(S(=O)(=O)c4cccc(F)c4)CC3)C2=O)cc1 (stereo not drawn) | inconclusive: 29.1 µM [activator, single point] | –
20 | COc1ccc(C(=O)Nc2ccc3c(c2)nc2n3CCSC2)cc1 | inactive | –
21 | O=C(Cn1nc(C(=O)O)c2ccccc2c1=O)NCCC1=CCCCC1 | inconclusive: 6.51 µM [activator, single point] | –
22 | COc1ccc(NC(=O)c2cccnc2NCCc2ccccc2)cc1 | inconclusive: 29.1 µM [activator, single point] | –

Row | Structure (SMILES) | Potency | re-replication activation
23 | CC(=O)c1cccc(NC(=O)CCc2nnc3ccc(N4CCN(C)CC4)nn23)c1 | inconclusive: 23.1 µM [activator, single point] | –
24 | N#Cc1nc(Cc2ccccc2)oc1NCCCn1ccnc1 | active: 16.4 µM | –
25 | Cc1ccc(Cl)cc1NC(=O)C1CCCN(c2cnccn2)C1 (stereo not drawn) | inconclusive: 20.6 µM [activator, single point] | –
26 | CCc1cccc(C)c1NC(=O)CN(C)S(=O)(=O)c1ccc(-c2ccc(=O)[nH]n2)s1 | inconclusive: 2.59 µM [activator, partial curve, poor fit] | –
27 | CCCc1nnc2n1N=C(c1ccc(OC)c(OC)c1)CS2 | inconclusive: 29.1 µM [activator, single point] | –
28 | COc1ccc(C(CNC(=O)c2ccc(-c3ccccc3)cc2)N(C)C)cc1OC (stereo not drawn) | inconclusive: 29.1 µM [activator, single point] | –
29 | Nc1cc(S(=O)(=O)c2ccc(O)c(N)c2)ccc1O | inconclusive: 32.6 µM [activator, partial curve, poor fit] | –
30 | COc1ccc(CN(C)CC(=O)NC2CCCc3ccccc32)cc1OC (stereo not drawn) | active: 4.11 µM | –
31 | CCOC(=O)N1CCN(Cc2ccc(O)c3ncccc23)CC1 | active: 5.8 µM | –
32 | Cc1ccc(C)c(N2CCN(C(=O)C3CCN(S(=O)(=O)c4c(C)noc4C)CC3)CC2)c1 | inconclusive: 29.1 µM [activator, single point] | –
33 | COc1ccccc1C(=O)NNC(=S)NC(=O)c1ccco1 | inconclusive: 4.11 µM [activator, full curve, poor fit] | –
34 | CCN(CC)C(=S)SCC(=O)c1ccc(F)cc1 | inconclusive: 20.6 µM [activator, single point] | –
35 | CC(/C=C/c1ccccc1F)=N\NC(=O)c1ccccc1 | inactive | –
36 | CCOC(=O)N1CCN(C(=O)c2ccc(Cn3c(=S)[nH]c4ccc(Br)cc4c3=O)cc2)CC1 | inconclusive: 9.2 µM [activator, partial curve, poor fit] | –
37 | CCc1nn(C(C)C(=O)N2CCN(c3ccccc3)CC2)c(=O)c2cc3occc3n12 (stereo not drawn) | inconclusive: 0.146 µM [activator, full curve, poor fit] | –
38 | Cc1cc(=O)[nH]c(SCC(=O)Nc2ccc(F)cc2)c1C#N | inconclusive: 29.1 µM [activator, single point] | –
39 | Cc1cccc(N2CCN(C(=O)C3CCN(c4ncnc5c4nc4n5CCCCC4)CC3)CC2C)c1 (stereo not drawn) | inconclusive: 9.2 µM [activator, partial curve, poor fit] | –
40 | COc1ccc(-n2c(C)cc(C3=NNC(=NC4CC4)SC3)c2C)cc1 | inconclusive: 25.9 µM [activator, single point] | –
41 | O=C1CCCC2=C1C(c1cccs1)n1nc(SCc3ccccc3F)nc1N2 (stereo not drawn) | inconclusive: 16.4 µM [activator, single point] | –
42 | CCOc1ccc(NC(=O)CSc2nnc(C)n2CC2CCCO2)cc1 (stereo not drawn) | inactive | –
43 | C=C(C(=O)Oc1c(C(C)(C)C)cccc1C(C)(C)C)c1ccccc1 | inactive | –

Sorted by SMILES length (largest number first): some entries from above.
Row | Structure (SMILES) | Potency | re-replication activation
37 | CCc1nn(C(C)C(=O)N2CCN(c3ccccc3)CC2)c(=O)c2cc3occc3n12 (stereo not drawn) | inconclusive: 0.146 µM [activator, full curve, poor fit] | –
42 | CCOc1ccc(NC(=O)CSc2nnc(C)n2CC2CCCO2)cc1 (stereo not drawn) | inactive | –
25 | Cc1ccc(Cl)cc1NC(=O)C1CCCN(c2cnccn2)C1 (stereo not drawn) | inconclusive: 20.6 µM [activator, single point] | –
